Measured values reported in patent KR20230168598A.
No constants are given. Whether binding was seen depends on the method and setting. Some entries that bind do so weakly or less than the wild type.

T1: 인간 TIGIT 발현 CHO-K1 세포 (CHO-K1 TIGIT, Genscript M00542)의 인간 TIGIT (human) (UniProt Q495A1)
T1 sequence: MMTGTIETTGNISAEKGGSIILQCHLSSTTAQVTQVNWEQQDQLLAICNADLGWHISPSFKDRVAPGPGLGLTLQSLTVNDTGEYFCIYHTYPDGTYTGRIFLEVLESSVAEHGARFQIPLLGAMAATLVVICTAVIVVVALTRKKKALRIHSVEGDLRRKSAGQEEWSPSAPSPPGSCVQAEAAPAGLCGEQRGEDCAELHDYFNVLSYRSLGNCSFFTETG

B1: 마우스 항-TIGIT 단클론 항체 2B7 (mouse backbone mIgG1) (antibody, V domains shown)
VH: EVQLQQSGPELVKPGASVKISCKTSGSTFTEYTMHWVKQSHGKSLEWIGGLNPNNGGTSYNQRFKDRATLTVDKSSSTAYMELRSLTSEDSAVYYCTRGTYYDYSFAYWGQGTLVTVSA
VL: DIVMTQSHKFMSTSVGDRVSITCKASHYVSTAVAWYQQKPGQSPKLLIYSPSYRYTGVPDRFTGSGSGTDFTFTISSVQAEDLAVYYCHQHYSTPWTFGGGTKLEIK
B2: 마우스 항-TIGIT 단클론 항체 3F8 (mouse backbone mIgG1) (antibody, V domains shown)
VH: EVQLQQSGPELVKPGASMKISCKASGYSFTDYIMNWVKQSHGKNLEWIGLSIPYNGGTSYNQKFEGKATLTVDKSSSTAYMELLSLTSEDSAVYYCARGIKGYFAMDYWGQGTSVTVSS
VL: DVVVTQTPLSLPVSFGDQVSISCRSSQSLVNSFGKTYLSWFLHKPGQSPQLIMYGVSNRFSGVPDRFSGSGSGTDFTLKISTIKPEDLGMYYCLQGTHQPWTFGGGTKLEIK
B3: 마우스-인간 키메라 항-TIGIT 단클론 항체 2B7 (인간 IgG1/kappa) (antibody, V domains shown)
VH: B1 VH
VL: DIVMTQSHKFMSTSVGDRVSITCKASHYVSTAVAWYQQKPGQSPKLLIYSPSYRYTGVPDRFTGSGSGTDFTFTISSVQAEDLAVYYCHQHYSTPWTFGGGTKLEIKR
B4: 마우스-인간 키메라 항-TIGIT 단클론 항체 3F8 (인간 IgG1/kappa) (antibody, V domains shown)
VH: B2 VH
VL: DVVVTQTPLSLPVSFGDQVSISCRSSQSLVNSFGKTYLSWFLHKPGQSPQLIMYGVSNRFSGVPDRFSGSGSGTDFTLKISTIKPEDLGMYYCLQGTHQPWTFGGGTKLEIKR

Columns and labels:
[1] = biological target: 재조합 원숭이 TIGIT 단백질 (recombinant cynomolgus TIGIT; acrobiosystems, China) (cynomolgus monkey); assay: ELISA, coated recombinant cynomolgus TIGIT
[2] = biological target: T1, 인간 TIGIT 발현 CHO-K1 세포 (CHO-K1 TIGIT, Genscript M00542)의 인간 TIGIT (human); assay: flow cytometry on CHO-K1 cells expressing human TIGIT
[3] = biological target: 원숭이(cynomolgus monkey) TIGIT-발현 Jurkat 세포 (Creative Biogene)의 TIGIT (cynomolgus monkey); assay: flow cytometry on Jurkat cells expressing cynomolgus TIGIT
[4] = biological target: 원숭이(cynomolgus monkey) TIGIT-발현 Jurkat 세포 (Creative Biogene)의 TIGIT (cynomolgus monkey); assay: flow cytometry, AF488-labelled antibody on Jurkat cells expressing cynomolgus TIGIT; reference Tiragolumab

Binder | binding [1] | binding [2] | binding [3] | binding [4]
B1 | binds | binds |  | 
B2 | binds | binds |  | 
B3 |  |  | binds | binds
B4 |  |  | binds | binds
